{"source": "the supplement of paper PMC8728848", "experiment_in_all_cases": "glycan array binding signal (z-score within array); higher = stronger binding", "details_in_all_cases": "glycan notation: IUPAC condensed, linker removed", "key": {"[1]": {"target": "Neu5Ac(a2-6)Gal(b1-4)GlcNAc(b1-3)Gal(b1-4)GlcNAc(b1-3)GalNAc", "how_it_was_run": "(§1)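 From the Consortium for Functional Glycomics database, 3228 arrays were curated, keeping only those whose protein sequence was available. Binding is given as a within-array Z-score averaged across arrays sharing a protein sequence and across linkers. Negative Z-scores can be read as non-binding.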"}, "[2]": {"target": "Neu5Ac(a2-6)Gal(b1-4)GlcNAc(b1-3)Gal(b1-4)GlcNAc(b1-3)[Neu5Ac(a2-6)Gal(b1-4)GlcNAc(b1-3)Gal(b1-4)GlcNAc(b1-6)]GalNAc", "how_it_was_run": "as §1"}, "[3]": {"target": "Neu5Ac(a2-6)Gal(b1-4)GlcNAc(b1-3)Gal(b1-4)GlcNAc(b1-6)[Gal(b1-3)]GalNAc", "how_it_was_run": "as §1"}, "[4]": {"target": "Neu5Ac(a2-6)Gal(b1-4)GlcNAc(b1-3)Gal(b1-4)[Fuc(a1-3)]GlcNAc(b1-3)Gal(b1-4)[Fuc(a1-3)]GlcNAc", "how_it_was_run": "as §1"}, "[5]": {"target": "Neu5Ac(a2-6)Gal(b1-4)GlcNAc(b1-3)GalNAc", "how_it_was_run": "as §1"}, "[6]": {"target": "Neu5Ac(a2-6)Gal(b1-4)GlcNAc(b1-3)[Neu5Ac(a2-6)Gal(b1-4)GlcNAc(b1-6)]GalNAc", "how_it_was_run": "as §1"}, "[7]": {"target": "Neu5Ac(a2-6)Gal(b1-4)GlcNAc(b1-6)GalNAc", "how_it_was_run": "as §1"}, "[8]": {"target": "Neu5Ac(a2-6)Gal(b1-4)GlcNAc(b1-6)[Gal(b1-3)GlcNAc(b1-3)]Gal(b1-4)Glc", "how_it_was_run": "as §1"}, "[9]": {"target": "Neu5Ac(a2-6)Gal(b1-4)GlcNAc(b1-6)[Gal(b1-3)]GalNAc", "how_it_was_run": "as §1"}, "[10]": {"target": "Neu5Ac(a2-6)Gal(b1-4)GlcNAc6S", "how_it_was_run": "as §1"}, "[11]": {"target": "Neu5Ac(a2-6)GalNAc", "how_it_was_run": "as §1"}, "[12]": {"target": "Neu5Ac(a2-6)GalNAc(b1-4)GlcNAc", "how_it_was_run": "as §1"}, "[13]": {"target": "Neu5Ac(a2-6)GalNAc(b1-4)GlcNAc6S", "how_it_was_run": "as §1"}, "[14]": {"target": "Neu5Ac(a2-6)GlcNAc(b1-4)GlcNAc", "how_it_was_run": "as §1"}, "[15]": {"target": "Neu5Ac(a2-6)GlcNAc(b1-4)GlcNAc(b1-4)GlcNAc", "how_it_was_run": "as §1"}, "[16]": {"target": "Neu5Ac(a2-8)Neu5Ac", "how_it_was_run": "as §1"}, "[17]": {"target": "Neu5Ac(a2-8)Neu5Ac(a2-3)Gal(b1-3)GalNAc(b1-4)[Neu5Ac(a2-3)]Gal(b1-4)Glc", "how_it_was_run": "as §1"}, "[18]": {"target": "Neu5Ac(a2-8)Neu5Ac(a2-3)Gal(b1-3)GalNAc(b1-4)[Neu5Ac(a2-8)Neu5Ac(a2-3)]Gal(b1-4)Glc", "how_it_was_run": "as §1"}, "[19]": {"target": "Neu5Ac(a2-8)Neu5Ac(a2-3)Gal(b1-4)Glc", "how_it_was_run": "as §1"}, "[20]": {"target": "Neu5Ac(a2-8)Neu5Ac(a2-3)Gal(b1-4)GlcNAc", "how_it_was_run": "as §1"}, "[21]": {"target": "Neu5Ac(a2-8)Neu5Ac(a2-3)[Gal(b1-3)GalNAc(b1-4)]Gal(b1-4)Glc", "how_it_was_run": "as §1"}, "[22]": {"target": "Neu5Ac(a2-8)Neu5Ac(a2-3)[GalNAc(b1-4)]Gal(b1-4)Glc", "how_it_was_run": "as §1"}, "[23]": {"target": "Neu5Ac(a2-8)Neu5Ac(a2-8)Neu5Ac", "how_it_was_run": "as §1"}, "[24]": {"target": "Neu5Ac(a2-8)Neu5Ac(a2-8)Neu5Ac(a2-3)Gal(b1-4)Glc", "how_it_was_run": "as §1"}, "[25]": {"target": "Neu5Ac(a2-8)Neu5Ac(a2-8)Neu5Ac(a2-3)[Gal(b1-3)GalNAc(b1-4)]Gal(b1-4)Glc", "how_it_was_run": "as §1"}, "[26]": {"target": "Neu5Ac(a2-8)Neu5Ac(a2-8)Neu5Ac(a2-3)[GalNAc(b1-4)]Gal(b1-4)Glc", "how_it_was_run": "as §1"}, "[27]": {"target": "Neu5Ac(a2-8)Neu5Ac(a2-8)Neu5Ac(a2-8)Neu5Ac(a2-3)[GalNAc(b1-4)]Gal(b1-4)Glc", "how_it_was_run": "as §1"}, "[28]": {"target": "Neu5Ac(a2-8)Neu5Gc(a2-3)Gal(b1-4)GlcNAc", "how_it_was_run": "as §1"}, "[29]": {"target": "Neu5Ac(b2-6)Gal(b1-4)GlcNAc", "how_it_was_run": "as §1"}, "[30]": {"target": "Neu5Ac(b2-6)GalNAc", "how_it_was_run": "as §1"}, "[31]": {"target": "Neu5Ac9Ac(a2-3)Gal(b1-3)GlcNAc", "how_it_was_run": "as §1"}, "[32]": {"target": "Neu5Ac9Ac(a2-3)Gal(b1-4)GlcNAc", "how_it_was_run": "as §1"}, "[33]": {"target": "Neu5Ac9Ac(a2-6)Gal(b1-4)GlcNAc", "how_it_was_run": "as §1"}, "[34]": {"target": "Neu5Gc(a2-3)Gal(b1-3)GlcNAc", "how_it_was_run": "as §1"}, "[35]": {"target": "Neu5Gc(a2-3)Gal(b1-3)[Fuc(a1-4)]GlcNAc", "how_it_was_run": "as §1"}, "[36]": {"target": "Neu5Gc(a2-3)Gal(b1-4)Glc", "how_it_was_run": "as §1"}, "[37]": {"target": "Neu5Gc(a2-3)Gal(b1-4)GlcNAc", "how_it_was_run": "as §1"}, "[38]": {"target": "Neu5Gc(a2-3)Gal(b1-4)GlcNAc(b1-3)Gal(b1-4)GlcNAc(b1-2)Man(a1-3)[Neu5Gc(a2-3)Gal(b1-4)GlcNAc(b1-3)Gal(b1-4)GlcNAc(b1-2)Man(a1-6)]Man(b1-4)GlcNAc(b1-4)GlcNAc", "how_it_was_run": "as §1"}, "[39]": {"target": "Neu5Gc(a2-3)Gal(b1-4)[Fuc(a1-3)]GlcNAc", "how_it_was_run": "as §1"}, "[40]": {"target": "Neu5Gc(a2-6)Gal(b1-4)GlcNAc", "how_it_was_run": "as §1"}, "[41]": {"target": "Neu5Gc(a2-6)GalNAc", "how_it_was_run": "as §1"}, "[42]": {"target": "Neu5Gc(a2-8)Neu5Ac(a2-3)Gal(b1-4)GlcNAc", "how_it_was_run": "as §1"}, "[43]": {"target": "Neu5Gc(a2-8)Neu5Gc(a2-3)Gal(b1-4)GlcNAc", "how_it_was_run": "as §1"}, "[44]": {"target": "Neu5Gc(a2-8)Neu5Gc(a2-3)Gal(b1-4)GlcNAc(b1-3)Gal(b1-4)GlcNAc", "how_it_was_run": "as §1"}, "[45]": {"target": "Neu5Gc(a2-8)Neu5Gc(a2-6)Gal(b1-4)GlcNAc", "how_it_was_run": "as §1"}}, "note": "The other results are listed elsewhere or left out."}
{"binder": "Mermaid1 (Stilbonema majum) (protein) MGSSHHHHHHSSGLVPRGSHMAASGWLRSPQGTVVKLYRRSLSWSKADEFCKDVDGRLVVDRTADMHLFLIKNVLKEKKSRVWVGLRRTAPHSRTWIWSDGTRQNEDDLDANLWLRDEPNDAAGEEECALFMYSPWEKAWGLNDYLCRGGCRSYQFICEKWIR", "values": [{"measurement": "glycan array binding signal (z-score)", "setting": "[1]", "value": -0.679}, {"measurement": "glycan array binding signal (z-score)", "setting": "[2]", "value": -0.258}, {"measurement": "glycan array binding signal (z-score)", "setting": "[3]", "value": -0.26}, {"measurement": "glycan array binding signal (z-score)", "setting": "[4]", "value": -0.822}, {"measurement": "glycan array binding signal (z-score)", "setting": "[5]", "value": -0.593}, {"measurement": "glycan array binding signal (z-score)", "setting": "[6]", "value": -0.347}, {"measurement": "glycan array binding signal (z-score)", "setting": "[7]", "value": 1.02}, {"measurement": "glycan array binding signal (z-score)", "setting": "[8]", "value": -0.37}, {"measurement": "glycan array binding signal (z-score)", "setting": "[9]", "value": -0.523}, {"measurement": "glycan array binding signal (z-score)", "setting": "[10]", "value": -0.695}, {"measurement": "glycan array binding signal (z-score)", "setting": "[11]", "value": -0.767}, {"measurement": "glycan array binding signal (z-score)", "setting": "[12]", "value": -0.985}, {"measurement": "glycan array binding signal (z-score)", "setting": "[13]", "value": -0.328}, {"measurement": "glycan array binding signal (z-score)", "setting": "[14]", "value": -0.278}, {"measurement": "glycan array binding signal (z-score)", "setting": "[15]", "value": -0.029}, {"measurement": "glycan array binding signal (z-score)", "setting": "[16]", "value": -0.351}, {"measurement": "glycan array binding signal (z-score)", "setting": "[17]", "value": -0.537}, {"measurement": "glycan array binding signal (z-score)", "setting": "[18]", "value": -0.366}, {"measurement": "glycan array binding signal (z-score)", "setting": "[19]", "value": -0.08}, {"measurement": "glycan array binding signal (z-score)", "setting": "[20]", "value": -0.021}, {"measurement": "glycan array binding signal (z-score)", "setting": "[21]", "value": -0.148}, {"measurement": "glycan array binding signal (z-score)", "setting": "[22]", "value": -0.375}, {"measurement": "glycan array binding signal (z-score)", "setting": "[23]", "value": -0.521}, {"measurement": "glycan array binding signal (z-score)", "setting": "[24]", "value": 1.44}, {"measurement": "glycan array binding signal (z-score)", "setting": "[25]", "value": -1}, {"measurement": "glycan array binding signal (z-score)", "setting": "[26]", "value": -0.78}, {"measurement": "glycan array binding signal (z-score)", "setting": "[27]", "value": -0.071}, {"measurement": "glycan array binding signal (z-score)", "setting": "[28]", "value": -0.791}, {"measurement": "glycan array binding signal (z-score)", "setting": "[29]", "value": -0.105}, {"measurement": "glycan array binding signal (z-score)", "setting": "[30]", "value": -0.711}, {"measurement": "glycan array binding signal (z-score)", "setting": "[31]", "value": -0.826}, {"measurement": "glycan array binding signal (z-score)", "setting": "[32]", "value": 0.536}, {"measurement": "glycan array binding signal (z-score)", "setting": "[33]", "value": 0.56}, {"measurement": "glycan array binding signal (z-score)", "setting": "[34]", "value": -0.396}, {"measurement": "glycan array binding signal (z-score)", "setting": "[35]", "value": 0.346}, {"measurement": "glycan array binding signal (z-score)", "setting": "[36]", "value": 0.154}, {"measurement": "glycan array binding signal (z-score)", "setting": "[37]", "value": -0.417}, {"measurement": "glycan array binding signal (z-score)", "setting": "[38]", "value": -0.959}, {"measurement": "glycan array binding signal (z-score)", "setting": "[39]", "value": 2.14}, {"measurement": "glycan array binding signal (z-score)", "setting": "[40]", "value": -0.041}, {"measurement": "glycan array binding signal (z-score)", "setting": "[41]", "value": -0.724}, {"measurement": "glycan array binding signal (z-score)", "setting": "[42]", "value": -0.824}, {"measurement": "glycan array binding signal (z-score)", "setting": "[43]", "value": -0.511}, {"measurement": "glycan array binding signal (z-score)", "setting": "[44]", "value": -0.614}, {"measurement": "glycan array binding signal (z-score)", "setting": "[45]", "value": 0.03}]}
